Some of the results follow.

B1: il10ra_site1_normal_mot_HHH_b1_05357_000000034_0001_23_39_H_._HHH_b2_07548_0002_0000200008_0000001_1_af2pred_0001 (protein)
chain: SSSSSDEEEEEVEELLEEAKHIEDLRRVSYLMIRAFAIAYRLNDPELERLVKKVAQELNSSSSSS
B2: il10ra_site1_normal_mot_HHH_b1_05357_000000034_0001_23_39_H_._HHH_b2_00663_0001_0000800048_0000001_0_af2pred_0001 (protein)
chain: SSSSSSDEEEVRELLEEAKEVPDPHERSYLLLRAYAVANRANDPELRRLVREVAKKLLHSSSSSS
B3: il10ra_site1_sap_23_mot_HHH_b2_02337_000000026_0001_38_52_H_._HHH_b1_01406_af2_0001_0000300012_0000002_0_0001_af2pred_dldesign_0_af2pred (protein)
chain: SSSSDRAELEAYLDALVAELGLTEEQRAILRLVLDDALAAGLSPERIRELLRTAAEYLAERSSSS
B4: il10ra_site1_normal_mot_HHH_b2_02693_af2_000000213_0001_19_35_H_._HHH_b2_04275_0001_0000300016_0000001_0_af2pred_0001 (protein)
chain: SSSSSSEESEELLEQLEEALRRGDEELIARLVLEIARLAEELNDKELVEELLRLLVEHQSSSSSS
B5: il10ra_site1_normal_mot_HHH_b1_01879_000000050_0001_1_18_H_._HHH_b2_02257_0001_0000300009_0000002_0_af2pred_0001 (protein)
chain: SSSSDEEVEEVVFEAQILAFKLGDEETLRRLAELSVQIKLRGDPRLREEVEELAEEFLEEYSSSS
B6: il10ra_site1_sap_24_mot_HHH_b1_05185_000000011_0001_22_39_H_._HHH_b1_07230_0001_0000300015_0000001_0_0001 (protein)
chain: SSSSDRELSDEAYKVLEEALELMANGNPEEAEELLEELRRLLEENGNRVMLHQVRFLLKALSSSS
B7: il10ra_site1_sap_19_mot_HHH_b2_01205_000000166_0001_1_19_H_._HHH_b1_00924_0001_0000200025_0000001_0_0001_af2pred_0001 (protein)
chain: SSSSSSSEIEEIEEEVRRLAENGNPEEALKLVIKAARELAERGNPEAAARLARLFAELSSSSSSS
B8: il10ra_site1_sap_12_mot_HHH_b1_00814_af2_000000078_0001_43_57_H_._40e86e4e32a25ee6cbb7392bdf050625_0001_1_0001_0000100001_0000001_0_0001 (protein)
chain: SSSSNSVAEVVARAVRAAFQLNDEETLRELWELFKRYIEEGDERYRERLEELLEELEERLSSSSS
B9: il10ra_site1_sap_13_mot_HHH_b1_03314_af2_000000278_0001_42_55_H_._HHH_b2_05627_0001_0000300016_0000001_0_0001 (protein)
chain: SSSSDEEEEELRRLIEELRELLENGNPEEAAEVAQRAARLAHEAHNPELLRELWELFARNFSSSS
B10: il10ra_site1_sap_17_mot_HHH_b1_05865_af2_000000211_0001_1_17_H_._HHH_b2_02858_af2_0001_0000800028_0000001_0_0001 (protein)
chain: SSSSDEENEEALELSVEAFRLALRGNPEEAREVLEEARRLAEELGNERLLEQIEELLRALNSSSS
B11: il10ra_site1_sap_13_mot_HHH_b1_06914_000000280_0001_1_18_H_._HHH_b1_07380_0001_0000200023_0000001_0_0001 (protein)
chain: SSSSSSREEVEELLEQAEELAERGNPEEANELLQEAVRIALEAGDEEALQAVWEVVRRLAKSSSS
B12: il10ra_site1_normal_mot_HHH_b1_02397_af2_000000085_0001_39_57_H_._HHH_b1_06802_af2_0001_0000500015_0000001_0 (protein)
chain: SSSSSEEEEELKELLKELRELVEEGDQEKIARLAQEVLRLAFRLNDEEALRFVWEVMRRLSSSSS
B13: il10ra_site1_normal_mot_HHH_b1_07641_af2_000000285_0001_1_21_H_._HHH_b2_07874_af2_0001_0000200011_0000001_0_1_af2pred_0001 (protein)
chain: SSSSSTEEAIRLLEEAAELLNNGDPEEAEEVAEEALEIAREAGDELLALSIEYLLELIRRSSSSS
B14: il10ra_site1_normal_mot_HHH_b2_01447_af2_000000258_0001_1_20_H_._HHH_b2_04530_0001_0000200013_0000002_0 (protein)
chain: SSSSTEDAQEVMELAREVSELDQEGDEEEAEEVLREAEEIAERHNNFVLRAALEHLRRVLSSSSS
B15: il10ra_site1_sap_15_mot_HHH_b1_03273_000000263_0001_1_14_H_._HHH_b2_00406_0001_0000500018_0000001_0_0001 (protein)
chain: SSSSSSDAEELLEEAEELLENGNPEEAIRAVQEAVRHAHQKRDEETLQLLWELVQEIASSSSSSS
B16: il10ra_site1_sap_18_mot_HHH_b2_01162_af2_000000234_0001_1_19_H_._HHH_b2_00001_0002_0000800077_0000001_0_0001 (protein)
chain: SSSSTIAEEAVRWLVHSLRRAKELGNEEYARAAARFLLAEARRVGDEEAEELAEEVLEELSSSSS
B17: il10ra_site1_sap_12_mot_6bb093d23f5042b6c551c363657da53b_0001_1_000000153_0001_51_65_H_._HHH_b2_02486_af2_0001_0001000052_0000001_0_0001_af2pred_0001 (protein)
chain: SSSSSAEELVRSALKAAKIAAENGDEEAVEKALKIAKQLAKANNDEELEKEIKRFEEELRSSSSS
B18: il10ra_site1_normal_mot_HHH_b1_04175_af2_000000064_0001_24_41_H_._HHH_b1_05042_0001_0000100011_0000001_0 (protein)
chain: SSSSDEELREEAEELLKEIRELIEEGDDERAAQLLLRVTRIAWELNDEELLQLIAELHELNSSSS

The assay has as its target il10ra, Q13651. Nature of the assay: yeast display titration.
As for B1, the “apparent Kd” value is “inactive: no binding seen”.

B2: the “apparent Kd” value is “inactive: no binding seen”.

Turning to B3, the “apparent Kd” value is “inactive: no binding seen”.

Regarding B4, the “apparent Kd” value was “inactive: no binding seen”.

Turning to B5, the apparent Kd was inactive: > 512 nM.

Take B6: the “apparent Kd” value is “inactive: no binding seen”.

In the case of B7, the “apparent Kd” value was “inactive: no binding seen”.

Consider B8, for which the “apparent Kd” value is “inactive: no binding seen”.

As for B9, the “apparent Kd” value is “inactive: no binding seen”.

For B10, the “apparent Kd” value is “inactive: no binding seen”.

For the molecule B11, the “apparent Kd” value was “inactive: no binding seen”.

B12: the “apparent Kd” value is “inactive: no binding seen”.

Take B13: the “apparent Kd” value is “inactive: no binding seen”.

For the molecule B14, the “apparent Kd” value was “inactive: no binding seen”.

With B15, the “apparent Kd” value was “inactive: no binding seen”.

Regarding B16, the “apparent Kd” value was “inactive: no binding seen”.

As for B17, the “apparent Kd” value was “inactive: no binding seen”.

For the molecule B18, the “apparent Kd” value was “inactive: no binding seen”.

Values taken from publication PMC10163288.
